This passage reports binding results from paper PMC4991450, “Protein arginine methyltransferase 1 may be involved in pregnane x receptor-activated overexpression of multidrug resistance 1 gene during acquired multidrug resistant” (Oncotarget, 2016).

By UniProt entry, the sequences of proteins in these tests, tags left out.
UniProt Q99873: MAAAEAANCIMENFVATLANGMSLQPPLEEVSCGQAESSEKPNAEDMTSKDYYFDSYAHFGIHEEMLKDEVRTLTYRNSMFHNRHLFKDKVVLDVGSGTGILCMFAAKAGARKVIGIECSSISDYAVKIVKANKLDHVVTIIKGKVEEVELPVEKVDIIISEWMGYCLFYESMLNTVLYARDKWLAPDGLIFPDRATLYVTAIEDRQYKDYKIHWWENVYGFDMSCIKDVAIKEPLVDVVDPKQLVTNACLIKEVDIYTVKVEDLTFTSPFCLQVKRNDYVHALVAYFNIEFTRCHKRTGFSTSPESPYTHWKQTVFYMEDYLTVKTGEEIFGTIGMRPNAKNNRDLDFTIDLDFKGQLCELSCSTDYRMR

The target of assay [1] is Protein arginine methyltransferase 1 (human (endogenous in MCF7/adr)) (UniProt Q99873). Briefly: condition: only cells treated with 4.5 μg/mL of AMI-1 for 24 h; co-IP; as a1, but MCF7/adr cells treated with 4.5 μg/mL of AMI-1 for 24 h before lysis.
Assay [2] shares this target. Briefly: co-IP; MCF7/adr cell lysate; anti-PRMT1 antibody overnight at 4°C, Protein A + G agarose 2 h at 4°C; blot with anti-PRMT1 and anti-PXR; isotype IgG as negative control; cells in drug-free medium for 2 weeks before the assay, also on the 14th day of the adriamycin removal experiment.

These are yes or no findings as the source states them, for the method shown. Binding seen in cells or lysates may run through a third protein. Some entries that bind do so weakly or less than the wild type.

B1: Pregnane x receptor (protein, UniProt O75469 1-434)
chain: MEVRPKESWNHADFVHCEDTESVPGKPSVNADEEVGGPQICRVCGDKATGYHFNVMTCEGCKGFFRRAMKRNARLRCPFRKGACEITRKTRRQCQACRLRKCLESGMKKEMIMSDEAVEERRALIKRKKSERTGTQPLGVQGLTEEQRMMIRELMDAQMKTFDTTFSHFKNFRLPGVLSSGCELPESLQAPSREEAAKWSQVRKDLCSLKVSLQLRGEDGSVWNYKPPADSGGKEIFSLLPHMADMSTYMFKGIISFAKVISYFRDLPIEDQISLLKGAAFELCQLRFNTVFNAETGTWECGRLSYCLEDTAGGFQQLLLEPMLKFHYMLKKLQLHEEEYVLMQAISLFSPDRPGVLQHRVVDQLQEQFAITLKSYIECNRPQPAHRFLFLKIMAMLTELRSINAQHTQRLLRIQDIHPFATPLMQELFGITGS
Take B1: the binding entry was “no binding” in assay [1] and “binds” in assay [2].
